This experiment addresses activating transcription factor 4 (ATF4) (UniProt P18848). In words: co-IP; MC3T3-E1 cells 48 h after plasmid transfection, lysed in RIPA buffer with PMSF; 1 mg of protein with protein A + G-agarose beads at 4 °C overnight; blots with anti-TMEM119 and anti-ATF4; the precipitating antibody is not stated.

By UniProt entry, the sequences of proteins in these tests, tags left out.
UniProt P18848: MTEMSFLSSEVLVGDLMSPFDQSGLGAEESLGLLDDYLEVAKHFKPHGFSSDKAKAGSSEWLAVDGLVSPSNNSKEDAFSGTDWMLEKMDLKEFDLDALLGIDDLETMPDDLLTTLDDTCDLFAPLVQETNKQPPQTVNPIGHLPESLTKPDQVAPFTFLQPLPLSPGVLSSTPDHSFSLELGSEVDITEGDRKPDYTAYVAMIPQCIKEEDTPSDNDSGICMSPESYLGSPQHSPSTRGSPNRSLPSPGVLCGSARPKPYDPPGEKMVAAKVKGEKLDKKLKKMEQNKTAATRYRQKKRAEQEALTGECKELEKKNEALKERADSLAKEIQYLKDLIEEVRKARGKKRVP

This note sets out measurements from article PMC10931804.

No constants are given. Whether binding was seen depends on the method and setting. In cells and extracts the contact can be indirect. Some results given as binding are weak or reduced against the parent protein; the word gives no strength. Where a sequence is shown, tags or fusion partners need not be part of it.

B1: transmembrane protein 119 (TMEM119) mutant c.G143A, p.S48L, FLAG-tagged (pcDNA3.1-TMEM119-FLAG-MUT) (protein, UniProt Q4V9L6 26-283)
chain: RSVPLKATFLEDVAGSGEAEGSLASSPSLPPPWTPALSPTSMGPQPITLGGPSPPTNFLDGIVDFFRQYVMLIAVVGSLAFLLMFIVCAAVITRQKQKASAYYPSSFPKKKYVDQSDRAGGPRAFSEVPDRAPDSRPEEALDSSRQLQADILAATQNLKSPTRAALGGGDGARMVEGRGAEEEEKGSQEGDQEVQGHGVPVETPEAQEEPCSGVLEGAVVAGEGQGELEGSLLLAQEAQGPVGPPESPCACSSVHPSV
B1: the binding result was “binds”.

B2: transmembrane protein 119 (TMEM119), wild type, FLAG-tagged (pcDNA3.1-TMEM119-FLAG-WT) (protein, UniProt Q4V9L6 26-283)
chain: RSVPLKATFLEDVAGSGEAEGSSASSPSLPPPWTPALSPTSMGPQPITLGGPSPPTNFLDGIVDFFRQYVMLIAVVGSLAFLLMFIVCAAVITRQKQKASAYYPSSFPKKKYVDQSDRAGGPRAFSEVPDRAPDSRPEEALDSSRQLQADILAATQNLKSPTRAALGGGDGARMVEGRGAEEEEKGSQEGDQEVQGHGVPVETPEAQEEPCSGVLEGAVVAGEGQGELEGSLLLAQEAQGPVGPPESPCACSSVHPSV
Take B2: the binding result is reported as “binds”.
